Data published in the supplement of paper PMC4604168 (melanoma cell lines).
This is one part of the list. Repeats are few or missing, and single values can be far off.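 The apoptosis fraction was the count of cleaved-PARP antibody-stained nuclei relative to all DNA-stained nuclei, imaged in 1,536-well plates. Screening doses were set so most cells survived, and baseline and induced cleaved-PARP levels vary greatly across cell lines.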

How the values were obtained:
Experiment in all cases: cleaved PARP positive nuclei fraction relative to DMSO control; melanoma cells; higher = more apoptosis
Conditions in all cases: library dose: low library concentration; 72 h
[1] = test system: MZ2-MEL
[2] = test system: MeWo
[3] = test system: RPMI7951
[4] = test system: RVH-421
[5] = test system: SkMel28
[6] = test system: SkMel2
[7] = test system: SkMel30
[8] = test system: SkMel5
[9] = test system: UACC257
[10] = test system: UACC62

Row | SMILES | cleaved PARP positive nuclei fraction [1] | cleaved PARP positive nuclei fraction [2] | cleaved PARP positive nuclei fraction [3] | cleaved PARP positive nuclei fraction [4] | cleaved PARP positive nuclei fraction [5] | cleaved PARP positive nuclei fraction [6] | cleaved PARP positive nuclei fraction [7] | cleaved PARP positive nuclei fraction [8] | cleaved PARP positive nuclei fraction [9] | cleaved PARP positive nuclei fraction [10]
1 | CS(=O)(=O)c1ccc(C(=O)Nc2ccc(Cl)c(-c3ccccn3)c2)c(Cl)c1 [vismodegib] + CN(C)S(=O)(=O)c1ccc2c(c1)/C(=C/c1cc3c([nH]1)CCCC3)C(=O)N2 [SU6656] (first compound 1 µM, partner dose 0.4 µM) | 48.5% | 231% | 90.5% | 39% | 31.9% | 115% | 224% | 130% | 112% | 174%
2 | CN(c1ncccc1CNc1nc(Nc2ccc3c(c2)CC(=O)N3)ncc1C(F)(F)F)S(C)(=O)=O + COc1cc2ncnc(Nc3ccc(Oc4ccccc4)cc3)c2cc1OC [SrcI1] (first compound 0.08 µM, partner dose 2 µM) | 47% | 78.4% | 351% | 140% | 129% | 199% | 47.3% | 81.8% | 41.2% | 125%
3 | NC(=O)c1ccc(N(C(N)=O)c2c(F)cccc2F)nc1-c1ccc(F)cc1F + C=CCn1c(=O)c2cnc(Nc3ccc(N4CCN(C)CC4)cc3)nc2n1-c1cccc(C(C)(C)O)n1 [MK1775] (first compound 0.4 µM, partner dose 0.02 µM) | 88.9% | 193% | 49.6% | 102% | 177% | 97.7% | 130% | 41.2% | 48.5% | 55.5%
4 | NC(=O)c1ccc(N(C(N)=O)c2c(F)cccc2F)nc1-c1ccc(F)cc1F + Oc1cc(-c2nc(-c3ccccc3)[nH]c2-c2ccncc2)ccc1Cl [L779450] (first compound 0.4 µM, partner dose 0.2 µM) | 88.7% | 83.6% | 32% | 85.2% | 177% | 124% | 117% | 37.6% | 170% | 299%
5 | Cn1cnc2c(F)c(Nc3ccc(Br)cc3Cl)c(C(=O)NOCCO)cc21 [selumetinib] + Cn1cc(/C=C2\C(=O)Nc3cccnc32)c2ccccc21 [GW441756] (first compound 0.015 µM, partner dose 0.4 µM) | 399% | 113% | 32.5% | 58.2% | 120% | 26.1% | 69.7% | 132% | 110% | 164%
6 | CS(=O)(=O)c1ccc(C(=O)Nc2ccc(Cl)c(-c3ccccn3)c2)c(Cl)c1 [vismodegib] + CCCCCCCCCCCC1=C(O)C(=O)C=C(O)C1=O [Embelin] (first compound 1 µM, partner dose 1.2 µM) | 19.6% | 133% | 49.3% | 258% | 102% | 95.2% | 34.9% | 69.9% | 103% | 183%
7 | Cn1cnc2c(F)c(Nc3ccc(Br)cc3Cl)c(C(=O)NOCCO)cc21 [selumetinib] + C[C@@H]1CCN(C(=O)CC#N)C[C@@H]1N(C)c1ncnc2[nH]ccc12 [CP690550] (first compound 0.015 µM, partner dose 1 µM) | 232% | 153% | 150% | 74.8% | 280% | 82.3% | 171% | 29.8% | 252% | 386%
8 | Cn1cnc2c(F)c(Nc3ccc(Br)cc3Cl)c(C(=O)NOCCO)cc21 [selumetinib] + c1cc(-c2cnn3cc(-c4ccc(OCCN5CCCCC5)cc4)cnc23)ccn1 [Dorsomorphin] (first compound 0.015 µM, partner dose 0.4 µM) | 251% | 59.7% | 46.2% | 155% | 177% | 43.2% | 365% | 188% | 118% | 147%
9 | C[C@@H](N)c1ccc(C(=O)Nc2ccnc3[nH]ccc23)cc1 + Cn1cncc1[C@@](N)(c1ccc(Cl)cc1)c1ccc2c(c1)c(-c1cccc(Cl)c1)cc(=O)n2C [tipifarnib] (first compound 0.4 µM, partner dose 0.01 µM) | 97.2% | 334% | 87.2% | 151% | 70.2% | 162% | 66.4% | 58.4% | 83% | 44.6%
10 | CC1(C)CCC(c2ccc(Cl)cc2)=C(CN2CCN(c3ccc(C(=O)NS(=O)(=O)c4ccc(N[C@H](CCN5CCOCC5)CSc5ccccc5)c(S(=O)(=O)C(F)(F)F)c4)cc3)CC2)C1 + NCC(=O)Nc1ccc(-n2nc(C(F)(F)F)cc2-c2ccc3c(ccc4ccccc43)c2)cc1 [OSU03012] (first compound 0.4 µM, partner dose 1 µM) | 174% | 1120% | 66.4% | 140% | 248% | 548% | 386% | 842% | 450% | 86.7%
11 | CC1(C)CCC(c2ccc(Cl)cc2)=C(CN2CCN(c3ccc(C(=O)NS(=O)(=O)c4ccc(N[C@H](CCN5CCOCC5)CSc5ccccc5)c(S(=O)(=O)C(F)(F)F)c4)cc3)CC2)C1 + C[C@@H]1CCN(C(=O)CC#N)C[C@@H]1N(C)c1ncnc2[nH]ccc12 [CP690550] (first compound 0.4 µM, partner dose 1 µM) | 104% | 471% | 137% | 111% | 56.9% | 115% | 97.3% | 188% | 201% | 43.6%
12 | NC1(c2ccc(-c3nc4ccn5c(=O)[nH]nc5c4cc3-c3ccccc3)cc2)CCC1 + Oc1nc(-c2ccc(C(F)(F)F)cc2)nc2c1CSCC2 [XAV939] (first compound 0.4 µM, partner dose 2 µM) | 160% | 58.1% | 59.8% | 137% | 224% | 85.3% | 71.7% | 183% | 137% | 64.7%
13 | CC(=O)O[C@@]12CO[C@@H]1C[C@H](O)[C@@]1(C)C(=O)[C@H](O)C3=C(C)[C@@H](OC(=O)[C@H](O)[C@@H](NC(=O)OC(C)(C)C)c4ccccc4)C[C@@](O)([C@@H](OC(=O)c4ccccc4)[C@H]21)C3(C)C [Docetaxel] + OCCn1cc(-c2cnc3nnn(Cc4ccc5ncccc5c4)c3n2)cn1 [PF04217903] (first compound 0.0001 µM, partner dose 1 µM) | 620% | 726% | 311% | 256% | 417% | 629% | 190% | 184% | 275% | 716%
14 | Cn1cnc2c(F)c(Nc3ccc(Br)cc3Cl)c(C(=O)NOCCO)cc21 [selumetinib] + C=CCn1c(=O)c2cnc(Nc3ccc(N4CCN(C)CC4)cc3)nc2n1-c1cccc(C(C)(C)O)n1 [MK1775] (first compound 0.015 µM, partner dose 0.02 µM) | 745% | 197% | 151% | 99.6% | 182% | 171% | 90.2% | 63.8% | 162% | 198%
15 | Cn1sc(=O)n(Cc2ccccc2)c1=O + COc1ccc(-c2ccc3c(N4CCOCC4)nc(N4C[C@@H](C)O[C@@H](C)C4)nc3n2)cc1CO [KU0063794] (first compound 0.4 µM, partner dose 0.02 µM) | 176% | 166% | 133% | 100% | 87.7% | 45% | 95.9% | 66% | 320% | 31%
16 | Cn1cnc2c(F)c(Nc3ccc(Br)cc3Cl)c(C(=O)NOCCO)cc21 [selumetinib] + N#Cc1c(O)c2c(-c3ccc(-c4ccccc4O)cc3)csc2[nH]c1=O [A769662] (first compound 0.015 µM, partner dose 2 µM) | 282% | 173% | 59.4% | 67.2% | 70.7% | 136% | 234% | 60.7% | 36.7% | 109%
17 | C[C@@H](N)c1ccc(C(=O)Nc2ccnc3[nH]ccc23)cc1 + COc1ccc(COc2ccc(Cc3cnc(N)nc3N)cc2OC)cc1 [GW2580] (first compound 0.4 µM, partner dose 1 µM) | 192% | 232% | 169% | 157% | 119% | 95.8% | 42.1% | 185% | 205% | 135%
18 | NC1(c2ccc(-c3nc4ccn5c(=O)[nH]nc5c4cc3-c3ccccc3)cc2)CCC1 + O=C(Nc1cccc(Cl)c1)Nc1ncc(CCNc2ncnc3ccsc23)s1 [SNS314] (first compound 0.4 µM, partner dose 0.0008 µM) | 155% | 72.1% | 59.1% | 224% | 252% | 42.2% | 66.4% | 72.1% | 322% | 222%
19 | CN(c1ncccc1CNc1nc(Nc2ccc3c(c2)CC(=O)N3)ncc1C(F)(F)F)S(C)(=O)=O + CC(C)CCN1c2nc(Nc3cc(F)c(O)c(F)c3)ncc2N(C)C(=O)C1C [BID1870] (first compound 0.08 µM, partner dose 0.2 µM) | 123% | 40.6% | 121% | 26.7% | 99.1% | 168% | 186% | 263% | 209% | 119%
20 | C[C@@H](N)c1ccc(C(=O)Nc2ccnc3[nH]ccc23)cc1 + O=C(O)c1ccc(-c2c[nH]c3ncc(-c4ccccc4)cc23)cc1C1CCCC1 [GSK650394] (first compound 0.4 µM, partner dose 0.16 µM) | 163% | 142% | 220% | 44% | 66.1% | 135% | 61.6% | 41% | 80% | 92%
21 | CCN(CC)CCNC(=O)c1c(C)[nH]c(/C=C2\C(=O)Nc3ccc(F)cc32)c1C [sunitinib] + Cn1cc(/C=C2\C(=O)Nc3cccnc32)c2ccccc21 [GW441756] (first compound 0.4 µM, partner dose 0.4 µM) | 103% | 147% | 143% | 26.6% | 204% | 57.1% | 245% | 86.9% | 191% | 103%
22 | NC(=O)c1ccc(N(C(N)=O)c2c(F)cccc2F)nc1-c1ccc(F)cc1F + CC1(C)NC(=O)N(c2ccc([N+](=O)[O-])c(C(F)(F)F)c2)C1=O [nilutamide] (first compound 0.4 µM, partner dose 1 µM) | 135% | 291% | 180% | 125% | 28.6% | 72% | 62.7% | 78.6% | 71.5% | 54.9%
23 | CCCCCCCCc1ccc(CCC(N)(CO)CO)cc1 [fingolimod] + CC1(C)NC(=O)N(c2ccc([N+](=O)[O-])c(C(F)(F)F)c2)C1=O [nilutamide] (first compound 2 µM, partner dose 1 µM) | 141% | 220% | 111% | 78.3% | 58.5% | 60.3% | 822% | 70.7% | 150% | 172%

Two entries picked at random from those above:
Row | SMILES | cleaved PARP positive nuclei fraction [1] | cleaved PARP positive nuclei fraction [2] | cleaved PARP positive nuclei fraction [3] | cleaved PARP positive nuclei fraction [4] | cleaved PARP positive nuclei fraction [5] | cleaved PARP positive nuclei fraction [6] | cleaved PARP positive nuclei fraction [7] | cleaved PARP positive nuclei fraction [8] | cleaved PARP positive nuclei fraction [9] | cleaved PARP positive nuclei fraction [10]
8 | Cn1cnc2c(F)c(Nc3ccc(Br)cc3Cl)c(C(=O)NOCCO)cc21 [selumetinib] + c1cc(-c2cnn3cc(-c4ccc(OCCN5CCCCC5)cc4)cnc23)ccn1 [Dorsomorphin] (first compound 0.015 µM, partner dose 0.4 µM) | 251% | 59.7% | 46.2% | 155% | 177% | 43.2% | 365% | 188% | 118% | 147%
2 | CN(c1ncccc1CNc1nc(Nc2ccc3c(c2)CC(=O)N3)ncc1C(F)(F)F)S(C)(=O)=O + COc1cc2ncnc(Nc3ccc(Oc4ccccc4)cc3)c2cc1OC [SrcI1] (first compound 0.08 µM, partner dose 2 µM) | 47% | 78.4% | 351% | 140% | 129% | 199% | 47.3% | 81.8% | 41.2% | 125%
